{"source": "PubChem BioAssay AID1508588 (Peter MacCallum Cancer Centre, 2020)", "test": "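Which gene losses make BRAF-mutant melanoma cells more responsive to vemurafenib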 (primary screen)", "cells": "human WM266.4 melanoma cells (BRAF V600 mutant)", "reagent": "siRNA pool against human genes, 40 nM", "duration": "96 h from transfection to read-out", "treatment": "vemurafenib 300 nM (about IC25), added 48 h after transfection, for 48 h; comparison arm got DMSO vehicle only", "detection": "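Ratios to non-targeting siRNA for cell gain, counted as DAPI nuclei after minus before drug and averaged over two replicates, and for absorbance-read medium lactate per cell; both binned into fold-change classes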", "scale": "cell gain with vemurafenib: higher = more cell gain than with non-targeting siRNA; lactate per cell with vemurafenib: higher = more lactate made per cell", "call rule": "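a knock-down counts as enhancing when its fold-change classes with vehicle and with vemurafenib, taken together, show a stronger drug effect on cell gain or lactate per cell; exact class pairs not stated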", "calls": "active = enhances vemurafenib effect; inactive = no enhancement seen", "note": "This is a random part of about 18,000 reagents. 790 of all reagents (4.4%) count as active. 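Calls rest on a combination of fold-change classes in drug and vehicle arms, not all shown here.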"}
The opening 6 records as a preview:
{"gene": "CYSTM1 (GeneID 84418)", "cell gain with vemurafenib": 0.24, "lactate per cell with vemurafenib": 0.06, "outcome": "active"}
{"gene": "SIX4 (GeneID 51804)", "cell gain with vemurafenib": 0.32, "lactate per cell with vemurafenib": 0.44, "outcome": "inactive"}
{"gene": "CHRNE (GeneID 1145)", "cell gain with vemurafenib": 0.92, "lactate per cell with vemurafenib": 0.66, "outcome": "inactive"}
{"gene": "SNX25 (GeneID 83891)", "cell gain with vemurafenib": 0.38, "lactate per cell with vemurafenib": 0.38, "outcome": "inactive"}
{"gene": "RELB (GeneID 5971)", "cell gain with vemurafenib": 0.44, "lactate per cell with vemurafenib": 0.9, "outcome": "inactive"}
{"gene": "VWA5B1 (GeneID 127731)", "cell gain with vemurafenib": 1.56, "lactate per cell with vemurafenib": 0.77, "outcome": "inactive"}

Results, repeating the preview:
{"gene": "CYSTM1 (GeneID 84418)", "cell gain with vemurafenib": 0.24, "lactate per cell with vemurafenib": 0.06, "outcome": "active"}
{"gene": "SIX4 (GeneID 51804)", "cell gain with vemurafenib": 0.32, "lactate per cell with vemurafenib": 0.44, "outcome": "inactive"}
{"gene": "CHRNE (GeneID 1145)", "cell gain with vemurafenib": 0.92, "lactate per cell with vemurafenib": 0.66, "outcome": "inactive"}
{"gene": "SNX25 (GeneID 83891)", "cell gain with vemurafenib": 0.38, "lactate per cell with vemurafenib": 0.38, "outcome": "inactive"}
{"gene": "RELB (GeneID 5971)", "cell gain with vemurafenib": 0.44, "lactate per cell with vemurafenib": 0.9, "outcome": "inactive"}
{"gene": "VWA5B1 (GeneID 127731)", "cell gain with vemurafenib": 1.56, "lactate per cell with vemurafenib": 0.77, "outcome": "inactive"}
{"gene": "TNNC1 (GeneID 7134)", "cell gain with vemurafenib": 0.5, "lactate per cell with vemurafenib": 0.87, "outcome": "inactive"}
{"gene": "CPSF3 (GeneID 51692)", "cell gain with vemurafenib": 0.96, "lactate per cell with vemurafenib": 0.68, "outcome": "inactive"}
{"gene": "SPSB2 (GeneID 84727)", "cell gain with vemurafenib": 0.62, "lactate per cell with vemurafenib": 1.5, "outcome": "inactive"}
{"gene": "PLEKHA1 (GeneID 59338)", "cell gain with vemurafenib": 1.3, "lactate per cell with vemurafenib": 0.66, "outcome": "inactive"}
{"gene": "SHARPIN (GeneID 81858)", "cell gain with vemurafenib": 0.92, "lactate per cell with vemurafenib": 0.5, "outcome": "inactive"}
{"gene": "LMLN (GeneID 89782)", "cell gain with vemurafenib": 0.8, "lactate per cell with vemurafenib": 0.79, "outcome": "inactive"}
{"gene": "DOCK11 (GeneID 139818)", "cell gain with vemurafenib": -0.08, "lactate per cell with vemurafenib": 0.52, "outcome": "active"}
{"gene": "TMEM106A (GeneID 113277)", "cell gain with vemurafenib": 0, "lactate per cell with vemurafenib": 0.52, "outcome": "inactive"}
{"gene": "FOXJ2 (GeneID 55810)", "cell gain with vemurafenib": 0.49, "lactate per cell with vemurafenib": 1.34, "outcome": "inactive"}
{"gene": "HAPLN3 (GeneID 145864)", "cell gain with vemurafenib": 0.39, "lactate per cell with vemurafenib": 1.42, "outcome": "inactive"}
{"gene": "UGT2B15 (GeneID 7366)", "cell gain with vemurafenib": 0.79, "lactate per cell with vemurafenib": 0.47, "outcome": "inactive"}
{"gene": "CEND1 (GeneID 51286)", "cell gain with vemurafenib": 0.48, "lactate per cell with vemurafenib": 1.27, "outcome": "inactive"}
{"gene": "PSORS1C2 (GeneID 170680)", "cell gain with vemurafenib": 0.51, "lactate per cell with vemurafenib": 1.01, "outcome": "inactive"}
{"gene": "RETREG2 (GeneID 79137)", "cell gain with vemurafenib": 0.34, "lactate per cell with vemurafenib": 0.74, "outcome": "inactive"}
{"gene": "TMEM223 (GeneID 79064)", "cell gain with vemurafenib": 0.95, "lactate per cell with vemurafenib": 1.34, "outcome": "inactive"}
{"gene": "IL12RB2 (GeneID 3595)", "cell gain with vemurafenib": 0.75, "lactate per cell with vemurafenib": 0.86, "outcome": "inactive"}
{"gene": "BBS1 (GeneID 582)", "cell gain with vemurafenib": 0.84, "lactate per cell with vemurafenib": 1.38, "outcome": "inactive"}
{"gene": "RSBN1 (GeneID 54665)", "cell gain with vemurafenib": 0.67, "lactate per cell with vemurafenib": 1.03, "outcome": "inactive"}
{"gene": "G6PD (GeneID 2539)", "cell gain with vemurafenib": 0.29, "lactate per cell with vemurafenib": 2.08, "outcome": "inactive"}
{"gene": "ARHGEF10 (GeneID 9639)", "cell gain with vemurafenib": 0.56, "lactate per cell with vemurafenib": 0.46, "outcome": "inactive"}
{"gene": "CD59 (GeneID 966)", "cell gain with vemurafenib": 0, "lactate per cell with vemurafenib": 2.21, "outcome": "inactive"}
{"gene": "TRPV5 (GeneID 56302)", "cell gain with vemurafenib": 0.51, "lactate per cell with vemurafenib": 0.56, "outcome": "inactive"}
{"gene": "C10orf62 (GeneID 414157)", "cell gain with vemurafenib": 0.35, "lactate per cell with vemurafenib": 1.27, "outcome": "inactive"}
{"gene": "TBC1D14 (GeneID 57533)", "cell gain with vemurafenib": 0.06, "lactate per cell with vemurafenib": 1.54, "outcome": "inactive"}
{"gene": "RPL23 (GeneID 9349)", "cell gain with vemurafenib": -0.1, "lactate per cell with vemurafenib": 0.41, "outcome": "inactive"}
{"gene": "UFSP1 (GeneID 402682)", "cell gain with vemurafenib": 0.42, "lactate per cell with vemurafenib": 1.42, "outcome": "inactive"}
{"gene": "VDR (GeneID 7421)", "cell gain with vemurafenib": 0.47, "lactate per cell with vemurafenib": 0.99, "outcome": "inactive"}
{"gene": "CRYZ (GeneID 1429)", "cell gain with vemurafenib": 0.68, "lactate per cell with vemurafenib": 0.76, "outcome": "inactive"}
{"gene": "ADRM1 (GeneID 11047)", "cell gain with vemurafenib": 0.38, "lactate per cell with vemurafenib": 0.62, "outcome": "inactive"}
{"gene": "IFT22 (GeneID 64792)", "cell gain with vemurafenib": 0.33, "lactate per cell with vemurafenib": 1.26, "outcome": "inactive"}
{"gene": "RFX1 (GeneID 5989)", "cell gain with vemurafenib": 0.3, "lactate per cell with vemurafenib": 1.52, "outcome": "inactive"}
{"gene": "KRT28 (GeneID 162605)", "cell gain with vemurafenib": 1.07, "lactate per cell with vemurafenib": 0.6, "outcome": "inactive"}
{"gene": "C1QL4 (GeneID 338761)", "cell gain with vemurafenib": 0.54, "lactate per cell with vemurafenib": 1.09, "outcome": "inactive"}
{"gene": "LGALS2 (GeneID 3957)", "cell gain with vemurafenib": 0.08, "lactate per cell with vemurafenib": 2.28, "outcome": "inactive"}
{"gene": "KLRC4 (GeneID 8302)", "cell gain with vemurafenib": 0.51, "lactate per cell with vemurafenib": 1.23, "outcome": "inactive"}
{"gene": "CEBPE (GeneID 1053)", "cell gain with vemurafenib": 0.59, "lactate per cell with vemurafenib": 1.02, "outcome": "inactive"}
{"gene": "H2AZ1 (GeneID 3015)", "cell gain with vemurafenib": 0.87, "lactate per cell with vemurafenib": 0.9, "outcome": "inactive"}
{"gene": "CCDC190 (GeneID 339512)", "cell gain with vemurafenib": 1.07, "lactate per cell with vemurafenib": 1.08, "outcome": "inactive"}
{"gene": "PHLDB1 (GeneID 23187)", "cell gain with vemurafenib": 0.65, "lactate per cell with vemurafenib": 0.73, "outcome": "inactive"}
{"gene": "CRMA (GeneID 253868)", "cell gain with vemurafenib": 0.33, "lactate per cell with vemurafenib": 0.73, "outcome": "inactive"}
{"gene": "RRM1 (GeneID 6240)", "cell gain with vemurafenib": -0.07, "lactate per cell with vemurafenib": 1.58, "outcome": "inactive"}
{"gene": "EEIG2 (GeneID 284611)", "cell gain with vemurafenib": 0.75, "lactate per cell with vemurafenib": 0.86, "outcome": "inactive"}
{"gene": "OR1D2 (GeneID 4991)", "cell gain with vemurafenib": 0.35, "lactate per cell with vemurafenib": 0.82, "outcome": "inactive"}
{"gene": "CGNL1 (GeneID 84952)", "cell gain with vemurafenib": 0.76, "lactate per cell with vemurafenib": 0.69, "outcome": "inactive"}
{"gene": "TEX10 (GeneID 54881)", "cell gain with vemurafenib": 0, "lactate per cell with vemurafenib": 1.1, "outcome": "inactive"}
{"gene": "IL1RAPL1 (GeneID 11141)", "cell gain with vemurafenib": 0.16, "lactate per cell with vemurafenib": 0.14, "outcome": "active"}
